Values of other authors in patent publication US10519207B2, “Compositions and methods for treating opioid tolerance” (priority 2015, dated 2019).

By UniProt entry, the sequences of proteins in these tests, tags left out. Residues count along the entry.
UniProt P16599, 80-235: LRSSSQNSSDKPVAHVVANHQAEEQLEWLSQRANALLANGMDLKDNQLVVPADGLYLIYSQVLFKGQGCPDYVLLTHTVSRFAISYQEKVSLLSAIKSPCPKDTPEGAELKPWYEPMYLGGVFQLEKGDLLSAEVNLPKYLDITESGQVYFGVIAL

Target: soluble TNF (solTNF) (Rattus norvegicus, UniProt P16599)
Settings: systemic; Loyd et al. 2008; cited from earlier work

CN1CC[C@]23c4c5ccc(O)c4O[C@H]2[C@@H](O)C=C[C@H]3[C@H]1C5 [morphine]
morphine ED50 dose: 5 mg/kg
